PubChem BioAssay AID686937 – Drosophila RNAi Screening Center, 2013
Aim: 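Knock-downs that reduce output of a secreted reporter enzyme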 (primary screen). System: Drosophila S2 cells expressing secreted horseradish peroxidase. Knock-down reagent: long dsRNA against Drosophila genes. Timing: about 5.5 days (5 days dsRNA, then 12 h reporter induction). Treatment: reporter expression induced after 5 days of dsRNA, read 12 h later; inducer not stated. Measurement: 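After 5 days of dsRNA and 12 h of reporter induction, medium peroxidase read by chemiluminescence and scored as per-plate z-score; higher values mean more reporter released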. Scale: z-score: higher = more reporter secreted into medium.
The deposit covers about 23,000 reagents; below is an unselected part of those with a known target gene and a result. 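Reduced-secretion tags in replicate 1 do not always agree with the z-scores; no criterion for assigning the tags was given.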 Names joined by + are all predicted targets of the reagent. Not stated in the record: the amount of reagent.

target gene	DRSC id	z-score, replicate 1	z-score, replicate 2	phenotype, replicate 1
GluRIIE (Glutamate receptor IIE)	DRSC13431	-0.17	0.33	
Vha100-3 (Vacuolar H[+] ATPase 100kD subunit 3)	DRSC05760	0.34	0.42	
EndoA (Endophilin A)	DRSC14775	0.43	0.42	
cbc (crowded by cid)	DRSC06957	-0.17	-0.15	
SNCF (SoxNeuro Co-Factor)	DRSC10115	-0.01	0	
RhoGAP71E (Rho GTPase activating protein at 71E)	DRSC10232	0.48	0.49	
RhoGAP71E (Rho GTPase activating protein at 71E)	DRSC10837	0.25	0.56	
RhoGAP71E (Rho GTPase activating protein at 71E)	DRSC10838	0.66	0.38	
bru1 (bruno 1)	DRSC01234	-1.43	-0.66	
bru1 (bruno 1)	DRSC01236	-1.69	-0.73	reduced secretion
bru1 (bruno 1)	DRSC01237	0.36	0.51	
bru1 (bruno 1)	DRSC01238	0.28	0.04	
bru1 (bruno 1)	DRSC03485	0.17	0.18	
Sarm (Sterile alpha and Armadillo motif)	DRSC08906	-0.4	0.29	
Sarm (Sterile alpha and Armadillo motif)	DRSC08907	0.3	0.28	
Sarm (Sterile alpha and Armadillo motif)	DRSC10038	0.31	0.24	
Sarm (Sterile alpha and Armadillo motif)	DRSC10039	0.35	0.26	
Sarm (Sterile alpha and Armadillo motif)	DRSC10927	0.15	0.1	
Sarm (Sterile alpha and Armadillo motif)	DRSC10929	0.32	0.28	
Kdsr (3-ketodihydrosphingosine reductase)	DRSC14245	0.69	0.42	
JMJD4 (Jumonji domain containing 4)	DRSC03025	0.38	0.24	
Cyp4e3 (Cytochrome P450 4e3)	DRSC03306	0.29	0.19	
CG6118	DRSC15968	-1.76	-0.96	reduced secretion
Acp36DE (Accessory gland protein 36DE)	DRSC01860	0.26	0.31	
Tpst (Tyrosylprotein sulfotransferase)	DRSC18989	0.68	-0.48	
Tpst (Tyrosylprotein sulfotransferase)	DRSC19696	0.28	0.71	
Tpst (Tyrosylprotein sulfotransferase)	DRSC19723	-0.03	0.04	
Tpst (Tyrosylprotein sulfotransferase)	DRSC19724	-1.8	-1.43	reduced secretion
Tpst (Tyrosylprotein sulfotransferase)	DRSC22621	0.87	0.78	
scro (scarecrow)	DRSC17099	0.1	0.76	
scro (scarecrow)	DRSC17102	0.34	0.47	
Bace (beta-site APP-cleaving enzyme)	DRSC02197	0.86	0.13	
NetB (Netrin-B)	DRSC20262	0.28	0.32	
eve (even skipped)	DRSC07614	0.6	0.42	
CG7432	DRSC16243	0.4	0.51	
Cyp12b2 (Cytochrome P450 12b2)	DRSC07364	0.2	0.27	
CG7367	DRSC03049	0.56	0.24	
CG11357	DRSC08183	0.37	0.35	
CG43090	DRSC17439	0.6	0.14	
CG12605	DRSC08286	0.21	0.31	
CG9917	DRSC20218	0.23	0.29	
loopin-1	DRSC06888	0.28	0.34	
Obp19c (Odorant-binding protein 19c)	DRSC20528	0.35	0.54	
beat-IIa (beaten path IIa)	DRSC14813	0.13	0.43	
beat-IIa (beaten path IIa)	DRSC14814	0.27	0.3	
Ubc2 (Ubiquitin conjugating enzyme 2)	DRSC01137	0.48	0.07	
Ubc2 (Ubiquitin conjugating enzyme 2)	DRSC03468	-0.18	0.08	
Itpr (Inositol 1,4,5,-trisphosphate receptor)	DRSC12354	0.25	0.4	
CG4362	DRSC15567	0.33	0.52	
Osi4 (Osiris 4)	DRSC12134	0.18	0.24	
Syx17 (Syntaxin 17)	DRSC08591	0.49	0.27	
loqs (loquacious)	DRSC02997	0.61	0.05	
IFT54 (Intraflagellar transport 54)	DRSC15469	0.64	0.44	
NO66 (Nucleolar protein 66)	DRSC18252	0.19	0.27	
sbb (scribbler)	DRSC05723	0.25	0.13	
sbb (scribbler)	DRSC07676	0.44	0.3	
G9a	DRSC18619	0.3	0.37	
CG43980	DRSC11500	-1.01	0.11	
CG43980	DRSC11646	0.24	0.37	
CG43980	DRSC22923	0.12	-0.39	
RanBPM (Ran-binding protein M)	DRSC06079	0.76	0.55	
CG5122	DRSC02816	0.48	0.5	
jhamt (juvenile hormone acid methyltransferase)	DRSC01985	-0.25	0.18	
Cyp311a1 (Cytochrome P450 311a1)	DRSC20239	0.2	0.42	
yellow-e	DRSC12966	0.04	0.62	
yellow-e	DRSC16563	0.39	0.21	
CG16711	DRSC10220	0.74	0.57	
CG15617	DRSC06570	0.48	0.51	
Sod1 (Superoxide dismutase 1)	DRSC11286	0.46	0.47	
CG32813	DRSC17948	0.23	0.35	
CG4465	DRSC15584	0.37	0.48	
CG12659	DRSC17862	0.07	0.55	
CG43338	DRSC22055	0.92	0.83	
Bub1 (Bub1 kinase)	DRSC02357	0.32	0.36	
Polr1C (RNA polymerase I and III subunit C)	DRSC02719	0.05	-0.1	
CG13045	DRSC09926	0.58	0.5	
CCT2 (Chaperonin containing TCP1 subunit 2)	DRSC18415	-0.04	-0.22	
bnl (branchless)	DRSC13377	0.54	0.52	
bnl (branchless)	DRSC16913	-0.79	-0.24	
CG14933 + CG42486	DRSC02415	0.2	0.42	
spd-2 (spindle defective 2)	DRSC09682	0.31	0.27	
enok (enoki mushroom)	DRSC04096	-0.12	0.04	
